# Reference: PubChem BioAssay AID743255 (National Center for Advancing Translational Sciences (NCATS), 2014)
# Amino acid sequences for entries named in this document (tags omitted). A change or cut given only in a name is not applied to a line headed by its entry.
# UniProt O94782: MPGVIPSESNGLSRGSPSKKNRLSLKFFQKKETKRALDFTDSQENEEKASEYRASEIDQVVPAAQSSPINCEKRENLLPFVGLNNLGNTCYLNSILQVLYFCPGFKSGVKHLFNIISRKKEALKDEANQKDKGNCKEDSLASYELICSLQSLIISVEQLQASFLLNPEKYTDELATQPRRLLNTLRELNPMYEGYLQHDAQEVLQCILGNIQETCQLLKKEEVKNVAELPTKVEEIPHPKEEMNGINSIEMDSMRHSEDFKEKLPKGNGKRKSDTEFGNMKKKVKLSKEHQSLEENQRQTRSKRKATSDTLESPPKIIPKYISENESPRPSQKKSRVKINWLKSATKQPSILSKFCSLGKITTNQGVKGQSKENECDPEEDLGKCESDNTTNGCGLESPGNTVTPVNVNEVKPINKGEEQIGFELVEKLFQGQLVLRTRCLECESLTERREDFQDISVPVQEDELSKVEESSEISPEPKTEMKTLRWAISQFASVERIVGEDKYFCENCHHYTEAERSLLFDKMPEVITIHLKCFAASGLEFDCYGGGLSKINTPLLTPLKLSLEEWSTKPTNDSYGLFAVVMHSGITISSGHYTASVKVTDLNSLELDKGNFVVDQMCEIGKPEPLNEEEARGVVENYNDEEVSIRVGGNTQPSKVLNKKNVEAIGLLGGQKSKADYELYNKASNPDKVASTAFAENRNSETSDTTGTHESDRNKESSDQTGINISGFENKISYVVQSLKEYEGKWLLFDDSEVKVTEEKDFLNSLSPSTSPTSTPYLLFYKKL
# Among all 390,000 compounds or so, about 910 (0.23%) were called active. This list was built around the results that the source calls inconclusive (neither active nor inactive); the mix of calls is not that of the screen. Calls come from the whole dose curve; as a rule, active = well fitted inhibition curve with a large enough effect; inconclusive = small, poorly fitted or top-dose-only effect; inactive = no such curve, though single readings can be large or run the other way. Potencies of inconclusive entries are doubtful fits and often do not repeat.
# Biological target: Ubiquitin carboxyl-terminal hydrolase 1 (Homo sapiens) (UniProt O94782)
# Assay: Inhibitors of USP1/UAF1: Primary Screen; note: nearly all actives have a fitted effect of over 60% in size
# Details: recombinant USP1/UAF1, Ub-Rhodamine cleavage fluorescence; activity change, negative = inhibition: at 57.1 µM (top of the series)
# In short: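 USP1/UAF1 complex at 1 nM was preincubated with compound for 15 min at room temperature, then Ub-Rho substrate (150nM final) was added. Fluorescence (480/540 nm) was read kinetically, 6 reads every 60 seconds.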
# % is set by controls: 0 for no effect and ±100 for the full control effect; potency is the fitted concentration of half-maximal effect.
SMILES,"activity change, negative = inhibition",Potency
COc1cc(Br)cc(CNc2ccc(F)c([N+](=O)[O-])c2)c1O,inactive: -20.7%,
Cn1c(Oc2ccc(Cl)cc2)nc2c1c(=O)n(Cc1ccc(F)cc1)c(=O)n2C,inactive: -12.9%,
Cc1ccc(OCCCSc2nc(-c3ccc(C(C)(C)C)cc3)nc3cc(=O)[nH]n23)cc1C,,"inconclusive: 39.8 µM [inhibitor, partial curve, poor fit]"
Cc1ccc(-c2nc(=S)c3c(n2Cc2cccnc2)CC(C)(C)OC3)cc1,,"inconclusive: 12.6 µM [inhibitor, partial curve]"
C[C@H]1CN([C@@H](C)CO)C(=O)c2cc(Br)cnc2O[C@H]1CN(C)C(=O)C1CCC1,inactive: -17.6%,
Cn1c(C(=O)O)cc2cc(Oc3ccccc3)ccc21,inactive: -2.93%,
O=C(Oc1ccccc1C(=O)Nc1ccccc1)c1ccc(Br)c([N+](=O)[O-])c1,inactive: -16%,
c1ccc(CN2CCC3(CCCc4ccccc43)CC2)cc1,inactive: -10.6%,
O=C(CC1N=C2c3ccccc3N=C(SCC(=O)Nc3ccc(F)cc3)N2C1=O)NCc1cccs1 (stereo unspecified),,"inconclusive: 0.282 µM [inhibitor, full curve]"
CN(C)c1ccc(N=Nc2cccc3ccoc23)cc1,inactive: -23.8%,
Cc1nn2cc(-c3ccccc3)nc2s1,,"inconclusive: 20 µM [inhibitor, partial curve]"
O=C(NCc1cccc(C(F)(F)F)c1)C1CC(c2cccc(F)c2)=NO1 (stereo unspecified),,"inconclusive: 79.4 µM [inhibitor, partial curve, poor fit]"
CCC(C)NC(=O)NCc1ccccc1F (stereo unspecified),,"inconclusive: 7.94 µM [inhibitor, single point]"
Cc1cccc(C2=NN(c3ccccc3)[C@H](CO)[C@H]2c2ccccc2)c1,inactive: -24.9%,
c1ccc(CCC2Cc3ccccc3N2)cc1 (stereo unspecified),,"inconclusive: 50.1 µM [inhibitor, partial curve, poor fit]"
Oc1ccccc1C1CC(c2cccs2)=NC(c2ccc(Cl)cc2)N1 (stereo unspecified),,"inconclusive: 35.5 µM [inhibitor, partial curve]"
NS(=O)(=O)c1ccc2c(c1)C(=NO)c1cc(S(N)(=O)=O)ccc1-2,inactive: -20.3%,
CN1C(=O)/C(=C/c2ccc(-c3ccccc3[N+](=O)[O-])o2)SC1=Nc1ccc(Cl)c(C(=O)O)c1,,"inconclusive: 35.5 µM [inhibitor, partial curve]"
O=c1[nH]nc(CNc2ccc(O)cc2)c2ccccc12,,"inconclusive: 31.6 µM [inhibitor, single point]"
CCOc1ccc(Oc2ccccc2NC(=O)CN2C(=O)NC3(CCCC3)C2=O)cc1,inactive: -2.12%,
COc1ccc(CCN2C(=O)N(c3ccc(F)cc3)C(=O)C2CC(=O)Nc2ccc(OC)cc2)cc1 (stereo unspecified),inactive: -10.6%,

# Quoted from the results shown (four entries):
SMILES,"activity change, negative = inhibition",Potency
Cn1c(Oc2ccc(Cl)cc2)nc2c1c(=O)n(Cc1ccc(F)cc1)c(=O)n2C,inactive: -12.9%,
Cc1ccc(OCCCSc2nc(-c3ccc(C(C)(C)C)cc3)nc3cc(=O)[nH]n23)cc1C,,"inconclusive: 39.8 µM [inhibitor, partial curve, poor fit]"
Cc1ccc(-c2nc(=S)c3c(n2Cc2cccnc2)CC(C)(C)OC3)cc1,,"inconclusive: 12.6 µM [inhibitor, partial curve]"
C[C@H]1CN([C@@H](C)CO)C(=O)c2cc(Br)cnc2O[C@H]1CN(C)C(=O)C1CCC1,inactive: -17.6%,
